Measured values published in PubChem BioAssay AID493014 (National Center for Advancing Translational Sciences (NCATS), 2011).
The other results are listed elsewhere or left out. The main result of the screen is listed elsewhere. These columns were measured beside it and carry no call. The list favours compounds with an active or inconclusive main result. Potencies come from curve fits of mixed quality, noted in brackets.

Experiment: qHTS Assay to Find Inhibitors of Chronic Active B-Cell Receptor Signaling
Settings: ABC-DLBCL IkBa-CBG/CBR reporter, luminescence ratio (green luciferase fused to IkBa over red control in TMD8 lymphoma cells), 4 h
Summary of the method: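 Compounds up to 46 uM were incubated four hours with TMD8 cells whose green CBG68 luciferase is fused to IkappaBalpha; red CBR luminescence normalised the signal, and concentration-effect curves were fitted to fusion, red and ratio data.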

[1] = measured here: CBR red luminescence, cell number
[2] = measured here: IkBa-CBG green luminescence

SMILES	AC50 [1]	AC50 [2]
c1nc(NC2CCCC2)c2[nH]cnc2n1	5.17 µM [falling, partial curve, poor fit]	
COc1cc(C(=O)Nc2ccc(Br)cc2C(=O)c2cc(OC)c(OC)c(OC)c2)cc(OC)c1OC	2.91 µM [rising, partial curve, poor fit]	
COc1ccccc1CNc1ncnc2c1c(-c1ccccc1)cn2-c1ccc(Br)cc1	1.26 µM [rising, full curve, poor fit]	
Cc1ccc(CN(c2ccc(C(=O)Nc3cccnc3)cc2)S(C)(=O)=O)cc1	2.06 µM [rising, partial curve, poor fit]	
CC1(C)CC(N=C2C([N+](=O)[O-])=CC=C3C2=NC2(CCCCC2)N3O)CC(C)(C)N1	35.5 µM [rising, single point]	
O=c1c2c(-c3ccco3)csc2nc(SCc2cn3cccnc3n2)n1-c1ccccc1	1.41 µM [rising, full curve, poor fit]	15.8 µM [falling, partial curve, poor fit]
Cc1ccc(NC(=O)CSc2nc(N)c3c4c(sc3n2)CSC(C)(C)C4)cc1		32.6 µM [rising, partial curve, poor fit]
Cc1ccc2c(c1)C(c1ccc(O)cc1)(c1ccc(O)cc1)C(=O)N2C	35.5 µM [falling, single point]	
Cc1nonc1-c1ccc2c(c1)OCO2	31.6 µM [rising, single point]	
COc1ccc(C(=O)NN/C(C)=C/C(=O)c2ccccc2)cc1	2.51 µM [falling, full curve]	
CC(C)N(C)Cc1nnnn1CC(=O)N(C)Cc1cccc(Cl)c1	15.8 µM [falling, single point]	
COc1ccccc1CCNCc1ccc(OC)c(OCc2ccccc2)c1	29.1 µM [falling, single point]	
CCc1nnc(NC(=O)CSc2nc(-c3ccc(OC)cc3)ns2)s1	20.6 µM [rising, single point]	
O=C(Nc1ccc(Br)cn1)c1ccc(Cl)s1	8.91 µM [falling, partial curve]	
O=c1c([N+](=O)[O-])c[nH]c2ccccc12	29.1 µM [falling, single point]	
N#Cc1c(NCc2ccccc2)ccnc1NCc1cccnc1	25.9 µM [falling, partial curve, poor fit]	
CCOC(=O)c1oc2cc(OCC(=O)OC)ccc2c(=O)c1-c1ccc(OC)c(OC)c1	20 µM [falling, single point]	
CNc1nc(N)c([N+](=O)[O-])c(NCc2ccccc2)n1	11.6 µM [rising, partial curve]	18.4 µM [falling, partial curve, poor fit]
C=CCOC(=O)C1=C[C@H](c2ccc(Br)cc2)[C@@H](CCCO)[C@H](OCC)O1	0.631 µM [falling, full curve, poor fit]	
O=C(COc1ccc(Br)cc1Cl)Nn1cnnc1	10 µM [rising, single point]	

SMILES	AC50 [1]	AC50 [2]
C/C(=N\Nc1nc2ccccc2[nH]1)c1ccc(Cl)s1	20.6 µM [falling, single point]	
O=c1c2ccccc2nc2n1CCCN2	1.78 µM [falling, full curve, poor fit]	
COc1cc(NS(=O)(=O)c2ccc(N/C=C(\C#N)c3nc4cc(Cl)ccc4o3)cc2)nc(OC)n1	2.91 µM [rising, full curve, poor fit]	
OCCCN=c1cc(-c2ccccc2)oc2ccc(Cl)cc12	29.1 µM [falling, single point]	16.4 µM [rising, partial curve, poor fit]
O=C(NCCCCCCOC1=NS(=O)(=O)c2ccccc21)C(=O)Nc1ccccc1	11.2 µM [falling, partial curve, poor fit]	
O=C(Nc1nc2ccccc2[nH]1)c1ccccc1OC(F)F	5.01 µM [falling, full curve]	
CCN(CC)S(=O)(=O)c1ccc(Cl)c(C(=O)N2CCc3ccccc32)c1	0.00517 µM [rising, full curve, poor fit]	
CC(CCc1ccccc1)NC(=O)CCCCCNc1nc(=S)[nH]c2ccccc12 (stereo not drawn)	3.16 µM [falling, full curve]	
CC1CCc2nn(CC(=O)Nc3ccc(F)cc3F)cc2C1 (stereo not drawn)	3.66 µM [rising, partial curve, poor fit]	
CC(=O)Nc1ccc(Nc2c3ccccc3nc3ccccc23)cc1	14.1 µM [falling, partial curve]	
Cc1cc(C)n2nc(-c3ccsc3-n3c(C)ccc3C)cc2n1	5.01 µM [rising, single point]	
Cc1ccn(CCNC(=O)C2CCC(=O)N(CCc3ccc(Cl)cc3)C2)n1 (stereo not drawn)	12.6 µM [rising, single point]	
COC1=C/C(=C/c2c(N)n3c(nc2=O)sc2cc(S(C)(=O)=O)ccc23)C=CC1=O	31.6 µM [falling, single point]	
COc1ccccc1N(CC(O)COc1c(C)cc(C)cc1C)S(=O)(=O)c1ccccc1 (stereo not drawn)	16.4 µM [falling, single point]	
Brc1ccc(-c2cn3c(n2)SCC3)cc1	1.58 µM [rising, partial curve, poor fit]	
C/C(=N\Nc1ccc(C(F)(F)F)cn1)c1ccncc1	2.82 µM [rising, full curve, poor fit]	
O=C(NCCc1ccccc1)C(=O)Nc1nccs1	2.06 µM [falling, full curve]	
Cc1cccc(N2C(=O)CN(Cc3sccc3C)C2=S)c1	4.11 µM [falling, partial curve, poor fit]	
COC(=O)c1ccc(CO/N=C/c2ccccc2OC)cc1	4.47 µM [falling, partial curve]	
CC(=O)NC(NC(=S)Nc1ccc(N=Nc2ccccc2)cc1)C(Cl)(Cl)Cl (stereo not drawn)	7.94 µM [falling, partial curve]	

A few values from the list:
AC50 [1], `O=C(NCCc1ccccc1)C(=O)Nc1nccs1` reads 2.06 µM [falling, full curve]
AC50 [1], `CCN(CC)S(=O)(=O)c1ccc(Cl)c(C(=O)N2CCc3ccccc32)c1` reads 0.00517 µM [rising, full curve, poor fit]
